The target of the assay is hB2 receptor (Homo sapiens, UniProt P30411). Put plainly: In vitro Assay of hB2 Receptor Function using Calcium Flux. Format: cell-based. The conditions noted are these: read-out: Data (um), recombinant CHO cells, antagonist IC50 against agonist at EC80. On the technique in general: Calcium assays in cells follow changes in intracellular calcium, usually with a dye or a luminescent sensor.

Protein sequences, listed by entry. Tags and fused reporters are not part of them.
UniProt P30411, whole entry: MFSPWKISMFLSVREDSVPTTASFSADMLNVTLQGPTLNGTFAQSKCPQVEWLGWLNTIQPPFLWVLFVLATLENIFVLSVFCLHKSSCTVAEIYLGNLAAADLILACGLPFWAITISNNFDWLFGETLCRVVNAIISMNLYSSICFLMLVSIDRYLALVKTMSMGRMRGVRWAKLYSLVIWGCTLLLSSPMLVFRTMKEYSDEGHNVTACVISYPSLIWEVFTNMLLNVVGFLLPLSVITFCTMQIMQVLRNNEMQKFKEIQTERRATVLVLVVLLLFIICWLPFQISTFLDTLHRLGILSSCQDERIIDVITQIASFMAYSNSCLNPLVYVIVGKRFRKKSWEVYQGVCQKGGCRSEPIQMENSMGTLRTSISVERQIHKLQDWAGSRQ

Each structure is given as a SMILES string. The match of structure and compound is tentative.

The results in this text go back to patent publication US20090227601A1, “Bradykinin 1 Receptor Antagonists” (Amgen Inc., priority 2005, published 2009).

What is called IC50 is the midpoint of a concentration-inhibition curve.

Take `Cc1ccc(S(=O)(=O)N2C=CNC(=O)[C@H]2CC(=O)NC2CCCCC2C(C)(C)C)cc1` (stereo partly shown): the IC50 turned out to be 21 nM.
